Our source for the inhibition values is PubChem BioAssay AID1242 (PCMD, 2008).

Structures are written as SMILES. The list shows a part of the results.

Usually inhibition stands for the drop in the measured response relative to a control, in per cent.

The assay is described as follows: Candida albicans biofilm persister killing – 4-compound mixtures, primary screen (AID 1242).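 Also: compounds exposed to preformed 24 h biofilms for 48 h; 0% = untreated biofilm control and 100% = clotrimazole plus chlorhexidine kill blank.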 To be noted: C. albicans biofilm persisters + clotrimazole, fluorescence viability; primary screen in compound mixtures of four per well; measured here: individual compound retest; at 61 µM; stronger effect = higher value.
`CN(C)C(=O)Oc1noc2ccccc12`: the inhibition was -15.3%.
On to `Cc1ccc(OP(=O)(Nc2nccs2)Oc2ccc(C)cc2)cc1`, for which the inhibition is -14.2%.
For `O=[N+]([O-])c1cc([N+](=O)[O-])c(Nc2ccccn2)c([N+](=O)[O-])c1`, the inhibition was 16.4%.
